# Experimental data from doi:10.1101/2021.10.20.465084.
# No constants are given. Whether binding was seen depends on the method and setting. Some results given as binding are weak or reduced against the parent protein; the word gives no strength.
# B1: Prefoldin from Pyrococcus horikoshii (PhPFD-α2β4 heterohexamer, 86.4 kDa) (complex, UniProt O58263 1-148; O58268 1-117)
# chain 1: MAQNNKELEKLAYEYQVLQAQAQILAQNLELLNLAKAEVQTVRETLENLKKIEEEKPEILVPIGAGSFLKGVIVDKNNAIVSVGSGYAVERSIDEAIGFLEKRLKEYDEAIKKTQGALAELEKRIGEVARKAQEVQQKQSMTSFKVKK
# chain 2: MQNIPPQVQAMLGQLDTYQQQLQLVIQQKQKVQADLNEAKKALEEIETLPDDAQIYKTVGTLIVKTTKEKAVQELKEKIETLEVRLNALNRQEQKINEKVKELTQKIQAALRPPTAG
# Biological target: preformed IAPP fibrils (human)
# Assay: negative-stain electron microscopy
binder,measurement,value
B1,binding,binds
